{"sequences": {"note": "The chains behind the UniProt entries cited, without tags or fusion partners.", "UniProt Q8VD65": "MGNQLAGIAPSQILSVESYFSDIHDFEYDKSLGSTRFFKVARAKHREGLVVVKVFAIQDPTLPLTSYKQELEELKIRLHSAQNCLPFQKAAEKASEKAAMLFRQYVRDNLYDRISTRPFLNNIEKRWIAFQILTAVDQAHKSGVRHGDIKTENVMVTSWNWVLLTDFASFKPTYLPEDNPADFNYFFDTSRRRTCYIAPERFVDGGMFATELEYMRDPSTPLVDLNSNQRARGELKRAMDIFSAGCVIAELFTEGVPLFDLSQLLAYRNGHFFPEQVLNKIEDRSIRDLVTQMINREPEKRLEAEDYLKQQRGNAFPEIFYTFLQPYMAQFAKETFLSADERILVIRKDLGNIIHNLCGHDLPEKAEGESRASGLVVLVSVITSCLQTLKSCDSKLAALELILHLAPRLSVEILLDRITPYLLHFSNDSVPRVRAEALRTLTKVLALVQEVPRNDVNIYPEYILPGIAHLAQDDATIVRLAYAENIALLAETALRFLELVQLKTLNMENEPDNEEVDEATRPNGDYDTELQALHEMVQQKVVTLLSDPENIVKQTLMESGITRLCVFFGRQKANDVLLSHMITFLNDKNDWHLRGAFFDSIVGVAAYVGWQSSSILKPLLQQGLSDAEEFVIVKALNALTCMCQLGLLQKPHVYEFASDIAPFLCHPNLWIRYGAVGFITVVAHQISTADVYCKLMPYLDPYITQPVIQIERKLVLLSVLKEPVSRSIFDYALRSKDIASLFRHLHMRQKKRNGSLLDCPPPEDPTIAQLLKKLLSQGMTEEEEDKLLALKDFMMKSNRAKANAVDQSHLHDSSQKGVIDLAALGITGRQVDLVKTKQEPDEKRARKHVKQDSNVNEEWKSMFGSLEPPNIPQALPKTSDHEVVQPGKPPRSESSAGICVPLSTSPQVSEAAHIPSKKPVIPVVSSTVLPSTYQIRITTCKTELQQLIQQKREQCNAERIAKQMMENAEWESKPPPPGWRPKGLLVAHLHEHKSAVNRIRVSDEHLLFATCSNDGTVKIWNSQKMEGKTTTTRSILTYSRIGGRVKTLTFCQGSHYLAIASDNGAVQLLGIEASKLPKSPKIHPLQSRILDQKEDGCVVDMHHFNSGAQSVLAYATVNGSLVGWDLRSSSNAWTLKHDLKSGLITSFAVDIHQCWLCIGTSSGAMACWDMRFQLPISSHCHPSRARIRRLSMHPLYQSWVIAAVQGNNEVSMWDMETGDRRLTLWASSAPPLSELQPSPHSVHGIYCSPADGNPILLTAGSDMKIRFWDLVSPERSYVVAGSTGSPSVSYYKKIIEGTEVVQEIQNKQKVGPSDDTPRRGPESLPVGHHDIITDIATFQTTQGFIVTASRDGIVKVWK", "UniProt Q8NEB9": "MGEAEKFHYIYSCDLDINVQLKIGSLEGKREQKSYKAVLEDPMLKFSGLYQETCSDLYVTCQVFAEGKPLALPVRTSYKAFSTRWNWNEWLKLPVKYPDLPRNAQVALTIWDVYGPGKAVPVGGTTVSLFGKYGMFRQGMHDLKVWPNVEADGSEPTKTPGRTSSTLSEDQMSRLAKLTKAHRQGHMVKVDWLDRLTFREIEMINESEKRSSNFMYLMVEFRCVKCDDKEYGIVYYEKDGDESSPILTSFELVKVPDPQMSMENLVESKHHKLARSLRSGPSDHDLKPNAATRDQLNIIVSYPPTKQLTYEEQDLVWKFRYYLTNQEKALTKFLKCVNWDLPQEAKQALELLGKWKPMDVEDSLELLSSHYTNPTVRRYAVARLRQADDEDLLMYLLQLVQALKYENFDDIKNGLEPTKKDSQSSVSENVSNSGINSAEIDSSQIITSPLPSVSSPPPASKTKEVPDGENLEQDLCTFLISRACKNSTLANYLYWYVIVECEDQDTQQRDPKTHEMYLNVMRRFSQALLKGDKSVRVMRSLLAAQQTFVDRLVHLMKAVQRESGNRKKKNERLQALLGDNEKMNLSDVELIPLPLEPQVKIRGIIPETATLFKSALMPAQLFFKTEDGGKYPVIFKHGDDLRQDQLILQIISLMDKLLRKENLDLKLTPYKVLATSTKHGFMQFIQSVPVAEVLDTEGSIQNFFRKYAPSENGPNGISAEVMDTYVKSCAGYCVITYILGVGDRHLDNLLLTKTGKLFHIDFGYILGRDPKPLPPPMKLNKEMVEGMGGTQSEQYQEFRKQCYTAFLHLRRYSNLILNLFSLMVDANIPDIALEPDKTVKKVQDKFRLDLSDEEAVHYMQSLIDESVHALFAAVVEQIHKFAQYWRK", "UniProt Q9WTL8": "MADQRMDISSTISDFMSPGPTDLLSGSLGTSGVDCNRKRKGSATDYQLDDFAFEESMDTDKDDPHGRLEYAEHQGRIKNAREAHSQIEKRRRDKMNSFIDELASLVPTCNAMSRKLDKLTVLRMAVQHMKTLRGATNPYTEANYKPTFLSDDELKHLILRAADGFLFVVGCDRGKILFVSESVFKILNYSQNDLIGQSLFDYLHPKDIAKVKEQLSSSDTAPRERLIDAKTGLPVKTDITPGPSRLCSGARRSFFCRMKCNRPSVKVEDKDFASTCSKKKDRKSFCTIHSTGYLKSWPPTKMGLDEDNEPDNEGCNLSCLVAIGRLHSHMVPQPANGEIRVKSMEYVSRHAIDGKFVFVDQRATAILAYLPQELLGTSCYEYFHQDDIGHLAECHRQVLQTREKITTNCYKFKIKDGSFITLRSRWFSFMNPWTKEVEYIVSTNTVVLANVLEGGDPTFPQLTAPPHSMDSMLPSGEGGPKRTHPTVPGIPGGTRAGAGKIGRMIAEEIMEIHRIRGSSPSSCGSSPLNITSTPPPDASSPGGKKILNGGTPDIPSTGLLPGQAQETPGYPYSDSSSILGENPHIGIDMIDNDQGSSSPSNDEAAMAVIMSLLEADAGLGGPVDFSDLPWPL", "UniProt O00327": "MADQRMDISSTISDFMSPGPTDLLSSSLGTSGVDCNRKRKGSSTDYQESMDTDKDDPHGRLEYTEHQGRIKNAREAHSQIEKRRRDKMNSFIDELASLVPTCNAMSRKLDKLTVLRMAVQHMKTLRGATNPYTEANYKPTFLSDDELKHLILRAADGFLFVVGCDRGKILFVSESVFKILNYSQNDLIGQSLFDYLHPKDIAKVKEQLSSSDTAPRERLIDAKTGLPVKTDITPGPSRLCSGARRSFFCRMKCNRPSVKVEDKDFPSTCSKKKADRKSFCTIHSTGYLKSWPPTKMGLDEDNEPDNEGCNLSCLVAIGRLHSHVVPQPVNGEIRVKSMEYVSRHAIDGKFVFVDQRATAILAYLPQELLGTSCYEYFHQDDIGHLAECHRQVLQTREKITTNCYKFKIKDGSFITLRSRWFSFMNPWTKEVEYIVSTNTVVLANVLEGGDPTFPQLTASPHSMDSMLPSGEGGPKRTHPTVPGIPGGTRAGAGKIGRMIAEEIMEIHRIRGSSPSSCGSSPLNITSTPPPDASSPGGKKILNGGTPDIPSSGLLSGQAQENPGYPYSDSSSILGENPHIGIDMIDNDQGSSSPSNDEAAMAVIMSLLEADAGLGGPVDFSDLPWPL", "UniProt Q6PF93": "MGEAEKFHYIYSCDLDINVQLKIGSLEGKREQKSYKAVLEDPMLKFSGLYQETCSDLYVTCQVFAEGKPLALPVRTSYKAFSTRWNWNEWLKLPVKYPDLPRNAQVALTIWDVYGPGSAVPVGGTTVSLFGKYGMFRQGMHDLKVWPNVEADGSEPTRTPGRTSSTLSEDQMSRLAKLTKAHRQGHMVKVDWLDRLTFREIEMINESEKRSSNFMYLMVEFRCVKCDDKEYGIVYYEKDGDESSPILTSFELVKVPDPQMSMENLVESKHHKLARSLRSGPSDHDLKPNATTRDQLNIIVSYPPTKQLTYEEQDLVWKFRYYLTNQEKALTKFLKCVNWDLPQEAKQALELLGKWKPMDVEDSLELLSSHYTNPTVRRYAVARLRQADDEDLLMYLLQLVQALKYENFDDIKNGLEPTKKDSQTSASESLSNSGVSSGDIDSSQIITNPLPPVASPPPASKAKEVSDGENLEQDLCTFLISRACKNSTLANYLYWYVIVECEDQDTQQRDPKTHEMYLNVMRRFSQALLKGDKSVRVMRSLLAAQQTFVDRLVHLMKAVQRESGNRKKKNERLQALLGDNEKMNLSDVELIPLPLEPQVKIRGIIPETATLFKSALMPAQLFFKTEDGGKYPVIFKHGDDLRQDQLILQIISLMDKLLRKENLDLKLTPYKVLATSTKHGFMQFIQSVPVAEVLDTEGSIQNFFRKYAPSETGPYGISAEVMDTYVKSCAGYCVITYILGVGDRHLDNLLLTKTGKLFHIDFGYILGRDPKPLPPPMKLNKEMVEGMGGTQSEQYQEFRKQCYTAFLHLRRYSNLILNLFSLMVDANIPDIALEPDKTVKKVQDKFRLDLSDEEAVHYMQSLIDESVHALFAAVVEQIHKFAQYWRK", "UniProt P52294": "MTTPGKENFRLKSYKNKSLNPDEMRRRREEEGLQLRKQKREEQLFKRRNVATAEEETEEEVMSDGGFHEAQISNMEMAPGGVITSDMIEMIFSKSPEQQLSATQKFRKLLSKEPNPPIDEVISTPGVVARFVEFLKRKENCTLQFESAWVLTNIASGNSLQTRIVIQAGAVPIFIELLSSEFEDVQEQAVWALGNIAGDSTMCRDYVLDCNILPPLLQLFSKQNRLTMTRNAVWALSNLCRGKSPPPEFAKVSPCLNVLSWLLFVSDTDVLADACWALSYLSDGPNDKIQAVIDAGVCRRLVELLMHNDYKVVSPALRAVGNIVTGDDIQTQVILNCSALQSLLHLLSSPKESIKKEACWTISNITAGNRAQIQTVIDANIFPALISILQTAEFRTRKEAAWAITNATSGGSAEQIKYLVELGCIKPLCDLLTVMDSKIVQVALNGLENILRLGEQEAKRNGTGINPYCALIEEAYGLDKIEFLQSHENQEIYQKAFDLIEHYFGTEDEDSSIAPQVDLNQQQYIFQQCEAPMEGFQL"}, "source": "paper PMC10344785", "key": {"[1]": {"biological_target": "endogenous Vps15 (mouse) (mouse (endogenous in MEFs and liver)) (UniProt Q8VD65)", "assay": "co-IP; Vps15 immunoprecipitated from the soluble nuclear (and cytosol) fractions of MEF cells; endogenous proteins"}, "[2]": {"biological_target": "endogenous Vps15 (mouse) (mouse (endogenous in MEFs and liver)) (UniProt Q8VD65)", "assay": "co-IP; Vps15 immunoprecipitated from the soluble nuclear fraction of liver tissue of WT male mice (ZT6; other ZT times in Extended Data Fig. 6e); endogenous proteins"}, "VPS34–Flag": {"biological_target": "VPS34–Flag (UniProt Q8NEB9)", "assay": "co-IP; anti-Flag immunoprecipitation of ectopically expressed Flag-tagged VPS15 (WT, Mut1, Mut2) or VPS34 from HEK293T cell extracts (1% NP-40 lysis buffer, Protein G Sepharose, four washes); blot for endogenous partners"}, "[3]": {"biological_target": "endogenous Bmal1 (mouse) (mouse (endogenous in MEFs and liver)) (UniProt Q9WTL8)", "assay": "co-IP; Bmal1 immunoprecipitated from total extracts of control and Vps15-depleted MEFs; blot for endogenous Clock"}, "[4]": {"biological_target": "endogenous Bmal1 (mouse) (mouse (endogenous in MEFs and liver)) (UniProt Q9WTL8)", "assay": "co-IP; Bmal1 immunoprecipitated from the soluble nuclear fraction of livers of WT and Vps15LKO mice (ZT0, ZT12); blot for Clock; beads alone as control"}, "[5]": {"biological_target": "endogenous BMAL1 (human (endogenous in HEK293T)) (UniProt O00327)", "assay": "co-IP; BMAL1 immunoprecipitated from total extracts of HEK293T cells transfected with increasing amounts of VPS15WT; blot for CLOCK and VPS15"}, "[6]": {"biological_target": "Bmal1-His full-length (Fl) protein (mouse) (UniProt Q9WTL8)", "assay": "co-IP; Bmal1 immunoprecipitates from total extracts of HEK293T cells expressing His-tagged mouse Bmal1 truncated constructs; blot for CLOCK and VPS15"}}, "note": "No constants are given. Whether binding was seen depends on the method and setting. Binding seen in cells or lysates may run through a third protein. Some binding calls cover weakened binding; strength is not graded here.", "data": [{"molecule": "endogenous Bmal1 (mouse) (from UniProt Q9WTL8 1-632)", "values": [{"measurement": "binding", "setting": "[1]", "value": "binds"}, {"measurement": "binding", "setting": "[2]", "value": "binds"}]}, {"molecule": "endogenous Vps34 (mouse) (from UniProt Q6PF93 1-887)", "values": [{"measurement": "binding", "setting": "[1]", "value": "binds"}, {"measurement": "binding", "setting": "[2]", "value": "binds"}]}, {"molecule": "endogenous importin α (IPOA5) (from UniProt P52294 1-538)", "values": [{"measurement": "binding", "setting": "VPS34–Flag", "value": "binds"}]}, {"molecule": "endogenous Clock (mouse) (protein, UniProt O08785 1-855) MVFTVSCSKMSSIVDRDDSSIFDGLVEEDDKDKAKRVSRNKSEKKRRDQFNVLIKELGSMLPGNARKMDKSTVLQKSIDFLRKHKETTAQSDASEIRQDWKPTFLSNEEFTQLMLEALDGFFLAIMTDGSIIYVSESVTSLLEHLPSDLVDQSIFNFIPEGEHSEVYKILSTHLLESDSLTPEYLKSKNQLEFCCHMLRGTIDPKEPSTYEYVRFIGNFKSLTSVSTSTHNGFEGTIQRTHRPSYEDRVCFVATVRLATPQFIKEMCTVEEPNEEFTSRHSLEWKFLFLDHRAPPIIGYLPFEVLGTSGYDYYHVDDLENLAKCHEHLMQYGKGKSCYYRFLTKGQQWIWLQTHYYITYHQWNSRPEFIVCTHTVVSYAEVRAERRRELGIEESLPETAADKSQDSGSDNRINTVSLKEALERFDHSPTPSASSRSSRKSSHTAVSDPSSTPTKIPTDTSTPPRQHLPAHEKMTQRRSSFSSQSINSQSVGPSLTQPAMSQAANLPIPQGMSQFQFSAQLGAMQHLKDQLEQRTRMIEANIHRQQEELRKIQEQLQMVHGQGLQMFLQQSNPGLNFGSVQLSSGNSNIQQLTPVNMQGQVVPANQVQSGHISTGQHMIQQQTLQSTSTQQSQQSVMSGHSQQTSLPSQTPSTLTAPLYNTMVISQPAAGSMVQIPSSMPQNSTQSATVTTFTQDRQIRFSQGQQLVTKLVTAPVACGAVMVPSTMLMGQVVTAYPTFATQQQQAQTLSVTQQQQQQQQQPPQQQQQQQQSSQEQQLPSVQQPAQAQLGQPPQQFLQTSRLLHGNPSTQLILSAAFPLQQSTFPPSHHQQHQPQQQQQLPRHRTDSLTDPSKVQPQ", "values": [{"measurement": "binding", "setting": "[3]", "value": "binds"}, {"measurement": "binding", "setting": "[4]", "value": "binds"}]}, {"molecule": "CLOCK (protein, UniProt O15516 1-846) MLFTVSCSKMSSIVDRDDSSIFDGLVEEDDKDKAKRVSRNKSEKKRRDQFNVLIKELGSMLPGNARKMDKSTVLQKSIDFLRKHKEITAQSDASEIRQDWKPTFLSNEEFTQLMLEALDGFFLAIMTDGSIIYVSESVTSLLEHLPSDLVDQSIFNFIPEGEHSEVYKILSTHLLESDSLTPEYLKSKNQLEFCCHMLRGTIDPKEPSTYEYVKFIGNFKSLNSVSSSAHNGFEGTIQRTHRPSYEDRVCFVATVRLATPQFIKEMCTVEEPNEEFTSRHSLEWKFLFLDHRAPPIIGYLPFEVLGTSGYDYYHVDDLENLAKCHEHLMQYGKGKSCYYRFLTKGQQWIWLQTHYYITYHQWNSRPEFIVCTHTVVSYAEVRAERRRELGIEESLPETAADKSQDSGSDNRINTVSLKEALERFDHSPTPSASSRSSRKSSHTAVSDPSSTPTKIPTDTSTPPRQHLPAHEKMVQRRSSFSSQSINSQSVGSSLTQPVMSQATNLPIPQGMSQFQFSAQLGAMQHLKDQLEQRTRMIEANIHRQQEELRKIQEQLQMVHGQGLQMFLQQSNPGLNFGSVQLSSGNSSNIQQLAPINMQGQVVPTNQIQSGMNTGHIGTTQHMIQQQTLQSTSTQSQQNVLSGHSQQTSLPSQTQSTLTAPLYNTMVISQPAAGSMVQIPSSMPQNSTQSAAVTTFTQDRQIRFSQGQQLVTKLVTAPVACGAVMVPSTMLMGQVVTAYPTFATQQQQSQTLSVTQQQQQQSSQEQQLTSVQQPSQAQLTQPPQQFLQTSRLLHGNPSTQLILSAAFPLQQSTFPQSHHQQHQSQQQQQLSRHRTDSLPDPSKVQPQ", "values": [{"measurement": "binding", "setting": "[5]", "value": "binds"}]}, {"molecule": "CLOCK (in Bmal1 immunoprecipitates of Fig. 4i) (protein, UniProt O15516 1-846) MLFTVSCSKMSSIVDRDDSSIFDGLVEEDDKDKAKRVSRNKSEKKRRDQFNVLIKELGSMLPGNARKMDKSTVLQKSIDFLRKHKEITAQSDASEIRQDWKPTFLSNEEFTQLMLEALDGFFLAIMTDGSIIYVSESVTSLLEHLPSDLVDQSIFNFIPEGEHSEVYKILSTHLLESDSLTPEYLKSKNQLEFCCHMLRGTIDPKEPSTYEYVKFIGNFKSLNSVSSSAHNGFEGTIQRTHRPSYEDRVCFVATVRLATPQFIKEMCTVEEPNEEFTSRHSLEWKFLFLDHRAPPIIGYLPFEVLGTSGYDYYHVDDLENLAKCHEHLMQYGKGKSCYYRFLTKGQQWIWLQTHYYITYHQWNSRPEFIVCTHTVVSYAEVRAERRRELGIEESLPETAADKSQDSGSDNRINTVSLKEALERFDHSPTPSASSRSSRKSSHTAVSDPSSTPTKIPTDTSTPPRQHLPAHEKMVQRRSSFSSQSINSQSVGSSLTQPVMSQATNLPIPQGMSQFQFSAQLGAMQHLKDQLEQRTRMIEANIHRQQEELRKIQEQLQMVHGQGLQMFLQQSNPGLNFGSVQLSSGNSSNIQQLAPINMQGQVVPTNQIQSGMNTGHIGTTQHMIQQQTLQSTSTQSQQNVLSGHSQQTSLPSQTQSTLTAPLYNTMVISQPAAGSMVQIPSSMPQNSTQSAAVTTFTQDRQIRFSQGQQLVTKLVTAPVACGAVMVPSTMLMGQVVTAYPTFATQQQQSQTLSVTQQQQQQSSQEQQLTSVQQPSQAQLTQPPQQFLQTSRLLHGNPSTQLILSAAFPLQQSTFPQSHHQQHQSQQQQQLSRHRTDSLPDPSKVQPQ", "values": [{"measurement": "binding", "setting": "[6]", "value": "binds"}]}]}
